Experimental data from PMC8500965.
No constants are given. Whether binding was seen depends on the method and setting. Binding seen in cells or lysates may run through a third protein. Some results given as binding are weak or reduced against the parent protein; the word gives no strength.

Chains of the proteins cited; added tags and fusions are not shown.
UniProt O88597: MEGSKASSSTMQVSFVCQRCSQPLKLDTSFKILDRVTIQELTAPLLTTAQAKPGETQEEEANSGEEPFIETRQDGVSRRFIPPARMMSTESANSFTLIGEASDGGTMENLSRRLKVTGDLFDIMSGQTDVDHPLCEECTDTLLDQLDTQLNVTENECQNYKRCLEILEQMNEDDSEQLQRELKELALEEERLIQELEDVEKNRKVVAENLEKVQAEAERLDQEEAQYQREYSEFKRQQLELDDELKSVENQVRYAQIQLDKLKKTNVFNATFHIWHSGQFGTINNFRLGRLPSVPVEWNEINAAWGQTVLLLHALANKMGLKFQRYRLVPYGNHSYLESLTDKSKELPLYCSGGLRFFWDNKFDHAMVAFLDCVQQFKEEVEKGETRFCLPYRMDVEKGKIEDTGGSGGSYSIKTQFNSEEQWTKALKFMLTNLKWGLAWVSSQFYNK
UniProt Q9Z0Z3: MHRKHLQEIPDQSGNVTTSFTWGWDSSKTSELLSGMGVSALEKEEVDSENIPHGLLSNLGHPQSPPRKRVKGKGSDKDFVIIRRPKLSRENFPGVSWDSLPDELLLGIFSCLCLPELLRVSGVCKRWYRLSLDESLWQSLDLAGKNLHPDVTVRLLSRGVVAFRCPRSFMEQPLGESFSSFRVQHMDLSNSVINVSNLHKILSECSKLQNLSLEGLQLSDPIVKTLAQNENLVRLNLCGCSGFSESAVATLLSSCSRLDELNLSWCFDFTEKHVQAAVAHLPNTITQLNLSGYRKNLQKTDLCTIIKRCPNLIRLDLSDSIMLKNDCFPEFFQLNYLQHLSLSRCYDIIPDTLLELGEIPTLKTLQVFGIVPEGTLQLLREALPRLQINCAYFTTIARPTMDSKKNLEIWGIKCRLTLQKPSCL

Target: Beclin1 (mouse (endogenous in MH-S)) (UniProt O88597)
Test: co-IP; myc-SKP2 overexpressed in MH-S cells; RIPA lysate pre-cleared with Protein A + G Agarose; IP with Beclin1 antibody or isotype-matched IgG at 4°C overnight; Western blot for Beclin1 and myc-SKP2

- binding: binds
Substance: myc-SKP2 (S-phase kinase-associated protein 2) (from UniProt Q9Z0Z3 1-424)
